Results from PubChem BioAssay AID330 (DTP/NCI, 2004).
The list shows only some results of the screen, not a fair sample: it gathers tests that were run many times, whatever their T/C, doses with no T/C, and many T/C values between a quarter and a half above the control. Further doses and runs are listed elsewhere. T/C is the treated group as % of the vehicle group. Some doses have a count of surviving animals in place of a T/C: the source files T/C as zero there, which appears to mark a toxic dose or a test without result, not a measured value. Some survivor counts are full or nearly so, which does not show that the dose was tolerated: the source hardly ever lists a survival T/C far under the control, and the zero likely stands for such cases as well. Survivors were counted at the toxicity check, usually on the fifth day, unless a day is given; later deaths do not show. Schedules are NCI's codes, taken here to give the interval after Q, in days (D) or hours (H), and the number of doses after X. Where survival is the endpoint, the PubChem record calls one and a half times the control and up active, and a quarter to a half above the control has no call in these data; cut-offs in other NCI protocols can differ. Some entries were tested several times; the results are listed from low to high.

System: P388 leukemia ip, CD2F1 mice, survival T/C
Experiment: NCI In Vivo Anticancer Drug Screen. Data for tumor model P388 Leukemia (intraperitoneal) in CD2F1 (CDF1) mice
Conditions: T/C endpoint: median survival time, higher T/C = longer survival

Q: Which survivor count (dose: 50.0 mg/kg/injection, schedule: Q04DX003 (ip), vehicle: distilled water + Tween-80) does the source give for `COc1cc2c[n+]3c(c(C)c2cc1OC)-c1cc2c(cc1CC3)OCO2` here?
A: 3 of 6

Q: What about the survivor count (dose: 100.0 mg/kg/injection, schedule: Q04DX003 (ip), vehicle: distilled water + Tween-80) of the same compound?
A: 0 of 6

Q: And the survivor count (dose: 200.0 mg/kg/injection, schedule: Q04DX003 (ip), vehicle: distilled water + Tween-80)?
A: 0 of 6

Q: What about the survivor count (dose: 400.0 mg/kg/injection, schedule: Q04DX003 (ip), vehicle: distilled water + Tween-80) of the same compound?
A: 0 of 6

Q: `C[C@H](N)[C@H](O)c1cccc(O)c1` was tested. Which survivor count (dose: 12.5 mg/kg/injection, schedule: Q01DX005 (ip), vehicle: saline) did it give?
A: 3 of 5

Q: Which results are given for `C[C@H]1CCC2=C(C1)NC(N)=NC2(C)C`?
A: survivor count (dose: 100.0 mg/kg/injection, schedule: Q04DX002 (ip), vehicle: saline with Tween-80): 0 of 6; survivor count (dose: 200.0 mg/kg/injection, schedule: Q04DX002 (ip), vehicle: saline with Tween-80): 0 of 6; survivor count (dose: 400.0 mg/kg/injection, schedule: Q04DX002 (ip), vehicle: saline with Tween-80): 0 of 6

Q: Which survivor count (dose: 200.0 mg/kg/injection, schedule: Q01DX005 (ip), vehicle: saline) does the source give for `CC1=CC[N+](C)(C)C(C(N)=O)C1` (stereo not given) here?
A: 3 of 5

Q: For `CC(C)=NNC1=NC(C)(C)P(=O)(NNc2ncccn2)S1` (stereo not given), which survivor count (dose: 120.0 mg/kg/injection, schedule: Q01DX005 (ip), vehicle: saline) is on record?
A: 0 of 6

Q: What about the survivor count (dose: 240.0 mg/kg/injection, schedule: Q01DX005 (ip), vehicle: saline) of the same compound?
A: 0 of 6

Q: `CNC(=O)OCc1c(COC(=O)NC)c(-c2ccc(Cl)c(Cl)c2)n2c1Cc1ccccc1C2` was tested. Which T/C (dose: 12.5 mg/kg/injection, schedule: Q01DX009 (ip), vehicle: distilled water + Tween-80) did it give?
A: 138 and 147 % of control

Q: How did the survivor count (dose: 240.0 mg/kg/injection, schedule: Q01DX005 (ip), vehicle: saline with Tween-80) turn out when `COCC(O)Cn1ccnc1N=Nc1ccccc1` (stereo not given) was run?
A: 4 of 6

Q: For `O=C(O)C(=O)c1ccc(-c2ccccc2)cc1`, which survivor count (dose: 200.0 mg/kg/injection, schedule: Q04DX003 (ip), vehicle: saline) is on record?
A: 5 of 6

Q: What does the source list for `Nc1cccc(=O)[nH]1`?
A: T/C (dose: 100.0 mg/kg/injection, schedule: Q01DX009 (ip), vehicle: saline): 126 % of control; T/C (dose: 200.0 mg/kg/injection, schedule: Q01DX009 (ip), vehicle: saline): 127 % of control; T/C (dose: 600.0 mg/kg/injection, schedule: Q01DX009 (ip), vehicle: saline): 125 and 137 % of control

Q: With `CCCCCCCCSC1=CC(=O)C(OC)=C(OC)C1=O` as the compound, how does the survivor count (dose: 2.0 mg/kg/injection, schedule: Q01DX009 (ip), vehicle: Klucel (hydroxypropylcellulose) (HPC)) read?
A: 6 of 6

Q: What about the survivor count (dose: 16.0 mg/kg/injection, schedule: Q01DX009 (ip), vehicle: Klucel (hydroxypropylcellulose) (HPC)) of the same compound?
A: 6 of 6

Q: And the survivor count (dose: 32.0 mg/kg/injection, schedule: Q01DX009 (ip), vehicle: Klucel (hydroxypropylcellulose) (HPC))?
A: 1 of 6

Q: Which survivor count (dose: 100.0 mg/kg/injection, schedule: Q01DX009 (ip), vehicle: saline with Tween-80) does the source give for `CC(C)N(/C=C/C(=O)c1ccccc1)C(C)C` here?
A: 5 of 6

Q: And the survivor count (dose: 200.0 mg/kg/injection, schedule: Q01DX009 (ip), vehicle: saline with Tween-80)?
A: 6 of 6

Q: How did the survivor count (dose: 50.0 mg/kg/injection, schedule: Q01DX005 (ip), vehicle: saline with Tween-80) turn out when `COc1ccc(C(=O)O[C@H]2CC[C@@]3(C)[C@@H]4CC[C@H]5[C@]6(O)C[C@H](O)[C@@]7(O)[C@@H](CN8C[C@@H](C)CC[C@H]8[C@@]7(C)O)[C@]6(O)C[C@@]53OC24O)cc1OC` was run?
A: 0 of 5

Q: And the survivor count (dose: 100.0 mg/kg/injection, schedule: Q01DX005 (ip), vehicle: saline with Tween-80)?
A: 0 of 5

Q: And the survivor count (dose: 200.0 mg/kg/injection, schedule: Q01DX005 (ip), vehicle: saline with Tween-80)?
A: 0 of 5
